Publication PMC7826843
No constants are given. Whether binding was seen depends on the method and setting. In cells and extracts the contact can be indirect. Some entries that bind do so weakly or less than the wild type.

Sequences of proteins named here, by UniProt entry; tags and fusion partners are left off.
UniProt Q92993: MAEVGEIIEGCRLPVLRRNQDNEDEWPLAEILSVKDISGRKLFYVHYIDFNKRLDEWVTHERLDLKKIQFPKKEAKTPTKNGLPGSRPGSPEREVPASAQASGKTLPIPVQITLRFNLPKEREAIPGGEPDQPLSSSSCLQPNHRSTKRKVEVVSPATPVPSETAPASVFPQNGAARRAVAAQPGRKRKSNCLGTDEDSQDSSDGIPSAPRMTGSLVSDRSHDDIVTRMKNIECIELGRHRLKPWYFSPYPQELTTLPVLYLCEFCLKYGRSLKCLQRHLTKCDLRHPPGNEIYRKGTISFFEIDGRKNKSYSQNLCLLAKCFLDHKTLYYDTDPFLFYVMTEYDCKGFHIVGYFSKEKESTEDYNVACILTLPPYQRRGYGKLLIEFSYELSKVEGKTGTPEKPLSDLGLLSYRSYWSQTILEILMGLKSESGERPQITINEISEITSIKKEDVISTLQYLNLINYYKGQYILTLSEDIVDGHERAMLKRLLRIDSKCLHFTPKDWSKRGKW

Molecular target: GFP–TIP60 (UniProt Q92993)
Assay: co-IP; HeLa Kyoto cells transiently expressing GFP or GFP–TIP60; RIPA lysate with DNase I, diluted; GFP–Trap Dynabeads over night at 4 °C; immunoblot for JAZF1, ZNHIT1 and GFP

B1: Juxtaposed with Another Zinc Finger 1 (JAZF1), endogenous (protein, UniProt Q86VZ6 1-243)
chain: MTGIAAASFFSNTCRFGGCGLHFPTLADLIEHIEDNHIDTDPRVLEKQELQQPTYVALSYINRFMTDAARREQESLKKKIQPKLSLTLSSSVSRGNVSTPPRHSSGSLTPPVTPPITPSSSFRSSTPTGSEYDEEEVDYEESDSDESWTTESAISSEAILSSMCMNGGEEKPFACPVPGCKKRYKNVNGIKYHAKNGHRTQIRVRKPFKCRCGKSYKTAQGLRHHTINFHPPVSAEIIRKMQQ
For B1, the binding was “binds”.
